# The supplement of paper PMC11732987, “Enantioselective OTUD7B fragment discovery through chemoproteomics screening and high-throughput optimisation” (Communications Chemistry, 2025)
# Amino acid sequences for entries named in this document (tags omitted). A change or cut given only in a name is not applied to a line headed by its entry. Residues count along the entry.
# UniProt O75478: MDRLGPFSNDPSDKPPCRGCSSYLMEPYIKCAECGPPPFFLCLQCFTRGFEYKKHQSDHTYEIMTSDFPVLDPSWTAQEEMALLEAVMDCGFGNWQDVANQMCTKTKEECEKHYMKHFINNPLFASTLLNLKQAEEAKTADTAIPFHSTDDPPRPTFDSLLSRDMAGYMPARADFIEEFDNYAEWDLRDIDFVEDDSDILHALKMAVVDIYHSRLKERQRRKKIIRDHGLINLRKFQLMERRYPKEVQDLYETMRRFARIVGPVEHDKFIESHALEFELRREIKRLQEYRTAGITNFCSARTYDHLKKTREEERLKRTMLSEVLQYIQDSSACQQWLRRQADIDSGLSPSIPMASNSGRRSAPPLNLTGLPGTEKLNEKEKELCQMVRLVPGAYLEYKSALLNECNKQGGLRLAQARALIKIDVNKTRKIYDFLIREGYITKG
# UniProt Q13395: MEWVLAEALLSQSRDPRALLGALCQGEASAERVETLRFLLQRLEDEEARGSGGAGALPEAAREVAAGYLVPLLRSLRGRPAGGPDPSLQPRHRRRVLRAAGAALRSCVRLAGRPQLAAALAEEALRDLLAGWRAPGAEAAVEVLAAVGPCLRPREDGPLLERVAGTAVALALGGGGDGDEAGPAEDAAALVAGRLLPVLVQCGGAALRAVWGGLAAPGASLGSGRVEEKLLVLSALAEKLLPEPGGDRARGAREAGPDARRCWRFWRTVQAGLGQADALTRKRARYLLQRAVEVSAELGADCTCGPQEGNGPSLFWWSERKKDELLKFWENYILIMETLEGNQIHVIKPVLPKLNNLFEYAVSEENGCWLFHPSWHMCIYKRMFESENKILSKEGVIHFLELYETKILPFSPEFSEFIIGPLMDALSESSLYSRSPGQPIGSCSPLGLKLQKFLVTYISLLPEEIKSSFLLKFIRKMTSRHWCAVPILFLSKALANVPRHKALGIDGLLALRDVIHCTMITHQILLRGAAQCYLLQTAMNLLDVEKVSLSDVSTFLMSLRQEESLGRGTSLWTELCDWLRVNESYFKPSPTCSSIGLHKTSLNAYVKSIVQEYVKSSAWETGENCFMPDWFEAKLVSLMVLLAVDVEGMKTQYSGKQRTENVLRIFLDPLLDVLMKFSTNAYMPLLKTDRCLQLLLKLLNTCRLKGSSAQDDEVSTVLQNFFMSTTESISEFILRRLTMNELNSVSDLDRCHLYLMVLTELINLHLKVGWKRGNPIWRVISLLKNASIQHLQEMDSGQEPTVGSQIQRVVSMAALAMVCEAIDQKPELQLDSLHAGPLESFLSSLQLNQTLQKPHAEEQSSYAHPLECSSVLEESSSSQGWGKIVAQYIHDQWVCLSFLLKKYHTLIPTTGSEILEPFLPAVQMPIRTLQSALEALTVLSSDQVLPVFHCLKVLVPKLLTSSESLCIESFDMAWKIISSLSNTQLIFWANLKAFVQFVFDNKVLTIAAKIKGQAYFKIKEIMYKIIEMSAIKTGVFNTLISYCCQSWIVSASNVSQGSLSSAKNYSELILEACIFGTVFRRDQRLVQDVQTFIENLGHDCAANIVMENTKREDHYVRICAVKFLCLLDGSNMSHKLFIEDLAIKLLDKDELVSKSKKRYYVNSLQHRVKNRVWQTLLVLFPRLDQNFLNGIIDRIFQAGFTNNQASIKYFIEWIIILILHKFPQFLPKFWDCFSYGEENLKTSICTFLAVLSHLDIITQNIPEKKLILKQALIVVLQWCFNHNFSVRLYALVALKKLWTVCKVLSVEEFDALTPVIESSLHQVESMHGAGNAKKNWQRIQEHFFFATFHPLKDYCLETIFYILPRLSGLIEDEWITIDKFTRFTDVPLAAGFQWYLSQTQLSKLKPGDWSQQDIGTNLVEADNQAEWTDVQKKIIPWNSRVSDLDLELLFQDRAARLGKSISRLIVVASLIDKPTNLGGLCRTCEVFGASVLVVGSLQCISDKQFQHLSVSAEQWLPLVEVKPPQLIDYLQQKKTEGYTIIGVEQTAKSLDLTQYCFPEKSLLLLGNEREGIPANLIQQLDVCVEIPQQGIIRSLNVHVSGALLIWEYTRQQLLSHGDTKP
# UniProt Q15572: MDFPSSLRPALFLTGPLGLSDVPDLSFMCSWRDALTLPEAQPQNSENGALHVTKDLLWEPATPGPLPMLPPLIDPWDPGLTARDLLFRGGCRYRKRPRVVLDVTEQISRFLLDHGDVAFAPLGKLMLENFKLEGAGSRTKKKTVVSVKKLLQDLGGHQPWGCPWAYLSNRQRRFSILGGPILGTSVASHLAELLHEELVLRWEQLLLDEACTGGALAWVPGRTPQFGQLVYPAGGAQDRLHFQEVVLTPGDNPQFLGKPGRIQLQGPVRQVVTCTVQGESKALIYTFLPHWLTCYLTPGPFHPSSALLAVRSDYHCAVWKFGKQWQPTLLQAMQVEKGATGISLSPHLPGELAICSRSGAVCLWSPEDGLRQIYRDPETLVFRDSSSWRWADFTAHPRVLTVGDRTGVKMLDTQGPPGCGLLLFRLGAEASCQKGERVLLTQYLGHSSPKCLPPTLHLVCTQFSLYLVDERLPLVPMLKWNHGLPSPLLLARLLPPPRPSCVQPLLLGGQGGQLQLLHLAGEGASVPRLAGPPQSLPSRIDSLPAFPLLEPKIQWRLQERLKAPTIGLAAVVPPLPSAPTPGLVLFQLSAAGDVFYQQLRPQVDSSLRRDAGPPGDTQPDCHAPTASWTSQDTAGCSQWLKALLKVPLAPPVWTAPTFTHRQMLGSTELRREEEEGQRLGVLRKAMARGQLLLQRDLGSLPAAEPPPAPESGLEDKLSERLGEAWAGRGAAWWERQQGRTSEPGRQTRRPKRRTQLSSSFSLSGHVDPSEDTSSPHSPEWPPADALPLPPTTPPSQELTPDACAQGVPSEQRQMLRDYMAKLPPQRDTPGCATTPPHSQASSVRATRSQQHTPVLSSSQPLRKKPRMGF
# UniProt O43422: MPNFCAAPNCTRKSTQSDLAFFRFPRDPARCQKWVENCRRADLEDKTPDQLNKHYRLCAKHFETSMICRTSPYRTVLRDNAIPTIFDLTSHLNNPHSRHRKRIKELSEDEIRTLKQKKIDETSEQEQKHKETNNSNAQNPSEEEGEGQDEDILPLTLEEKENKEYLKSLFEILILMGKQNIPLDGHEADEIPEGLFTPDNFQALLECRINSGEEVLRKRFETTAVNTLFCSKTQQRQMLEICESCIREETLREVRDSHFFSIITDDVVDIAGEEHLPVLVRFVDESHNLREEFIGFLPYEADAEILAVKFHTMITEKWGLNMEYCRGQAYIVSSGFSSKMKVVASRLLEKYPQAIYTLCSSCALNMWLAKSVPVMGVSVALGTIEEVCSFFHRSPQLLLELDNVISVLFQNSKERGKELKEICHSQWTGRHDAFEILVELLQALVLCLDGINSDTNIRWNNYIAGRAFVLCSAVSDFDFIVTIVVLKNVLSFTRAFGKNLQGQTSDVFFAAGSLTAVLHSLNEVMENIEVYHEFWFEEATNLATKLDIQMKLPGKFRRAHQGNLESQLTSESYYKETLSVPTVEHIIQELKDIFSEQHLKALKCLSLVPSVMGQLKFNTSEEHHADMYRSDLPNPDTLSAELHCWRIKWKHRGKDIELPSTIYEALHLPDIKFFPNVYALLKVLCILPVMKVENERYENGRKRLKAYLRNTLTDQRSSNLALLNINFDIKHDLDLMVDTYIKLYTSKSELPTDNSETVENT
# UniProt Q5VWN6, 1038-1058: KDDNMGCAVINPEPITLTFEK
# UniProt Q9NVG8: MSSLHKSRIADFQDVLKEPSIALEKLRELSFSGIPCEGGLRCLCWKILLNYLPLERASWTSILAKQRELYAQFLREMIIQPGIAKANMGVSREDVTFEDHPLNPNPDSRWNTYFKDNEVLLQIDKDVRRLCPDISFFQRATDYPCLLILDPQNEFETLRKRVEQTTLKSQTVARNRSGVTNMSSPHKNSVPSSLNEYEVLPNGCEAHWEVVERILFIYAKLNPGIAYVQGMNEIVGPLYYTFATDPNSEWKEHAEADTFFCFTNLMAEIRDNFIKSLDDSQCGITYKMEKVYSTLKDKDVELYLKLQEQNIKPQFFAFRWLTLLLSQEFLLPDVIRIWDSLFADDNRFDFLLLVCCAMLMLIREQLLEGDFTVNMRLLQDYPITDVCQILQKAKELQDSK
# UniProt Q8NFU7: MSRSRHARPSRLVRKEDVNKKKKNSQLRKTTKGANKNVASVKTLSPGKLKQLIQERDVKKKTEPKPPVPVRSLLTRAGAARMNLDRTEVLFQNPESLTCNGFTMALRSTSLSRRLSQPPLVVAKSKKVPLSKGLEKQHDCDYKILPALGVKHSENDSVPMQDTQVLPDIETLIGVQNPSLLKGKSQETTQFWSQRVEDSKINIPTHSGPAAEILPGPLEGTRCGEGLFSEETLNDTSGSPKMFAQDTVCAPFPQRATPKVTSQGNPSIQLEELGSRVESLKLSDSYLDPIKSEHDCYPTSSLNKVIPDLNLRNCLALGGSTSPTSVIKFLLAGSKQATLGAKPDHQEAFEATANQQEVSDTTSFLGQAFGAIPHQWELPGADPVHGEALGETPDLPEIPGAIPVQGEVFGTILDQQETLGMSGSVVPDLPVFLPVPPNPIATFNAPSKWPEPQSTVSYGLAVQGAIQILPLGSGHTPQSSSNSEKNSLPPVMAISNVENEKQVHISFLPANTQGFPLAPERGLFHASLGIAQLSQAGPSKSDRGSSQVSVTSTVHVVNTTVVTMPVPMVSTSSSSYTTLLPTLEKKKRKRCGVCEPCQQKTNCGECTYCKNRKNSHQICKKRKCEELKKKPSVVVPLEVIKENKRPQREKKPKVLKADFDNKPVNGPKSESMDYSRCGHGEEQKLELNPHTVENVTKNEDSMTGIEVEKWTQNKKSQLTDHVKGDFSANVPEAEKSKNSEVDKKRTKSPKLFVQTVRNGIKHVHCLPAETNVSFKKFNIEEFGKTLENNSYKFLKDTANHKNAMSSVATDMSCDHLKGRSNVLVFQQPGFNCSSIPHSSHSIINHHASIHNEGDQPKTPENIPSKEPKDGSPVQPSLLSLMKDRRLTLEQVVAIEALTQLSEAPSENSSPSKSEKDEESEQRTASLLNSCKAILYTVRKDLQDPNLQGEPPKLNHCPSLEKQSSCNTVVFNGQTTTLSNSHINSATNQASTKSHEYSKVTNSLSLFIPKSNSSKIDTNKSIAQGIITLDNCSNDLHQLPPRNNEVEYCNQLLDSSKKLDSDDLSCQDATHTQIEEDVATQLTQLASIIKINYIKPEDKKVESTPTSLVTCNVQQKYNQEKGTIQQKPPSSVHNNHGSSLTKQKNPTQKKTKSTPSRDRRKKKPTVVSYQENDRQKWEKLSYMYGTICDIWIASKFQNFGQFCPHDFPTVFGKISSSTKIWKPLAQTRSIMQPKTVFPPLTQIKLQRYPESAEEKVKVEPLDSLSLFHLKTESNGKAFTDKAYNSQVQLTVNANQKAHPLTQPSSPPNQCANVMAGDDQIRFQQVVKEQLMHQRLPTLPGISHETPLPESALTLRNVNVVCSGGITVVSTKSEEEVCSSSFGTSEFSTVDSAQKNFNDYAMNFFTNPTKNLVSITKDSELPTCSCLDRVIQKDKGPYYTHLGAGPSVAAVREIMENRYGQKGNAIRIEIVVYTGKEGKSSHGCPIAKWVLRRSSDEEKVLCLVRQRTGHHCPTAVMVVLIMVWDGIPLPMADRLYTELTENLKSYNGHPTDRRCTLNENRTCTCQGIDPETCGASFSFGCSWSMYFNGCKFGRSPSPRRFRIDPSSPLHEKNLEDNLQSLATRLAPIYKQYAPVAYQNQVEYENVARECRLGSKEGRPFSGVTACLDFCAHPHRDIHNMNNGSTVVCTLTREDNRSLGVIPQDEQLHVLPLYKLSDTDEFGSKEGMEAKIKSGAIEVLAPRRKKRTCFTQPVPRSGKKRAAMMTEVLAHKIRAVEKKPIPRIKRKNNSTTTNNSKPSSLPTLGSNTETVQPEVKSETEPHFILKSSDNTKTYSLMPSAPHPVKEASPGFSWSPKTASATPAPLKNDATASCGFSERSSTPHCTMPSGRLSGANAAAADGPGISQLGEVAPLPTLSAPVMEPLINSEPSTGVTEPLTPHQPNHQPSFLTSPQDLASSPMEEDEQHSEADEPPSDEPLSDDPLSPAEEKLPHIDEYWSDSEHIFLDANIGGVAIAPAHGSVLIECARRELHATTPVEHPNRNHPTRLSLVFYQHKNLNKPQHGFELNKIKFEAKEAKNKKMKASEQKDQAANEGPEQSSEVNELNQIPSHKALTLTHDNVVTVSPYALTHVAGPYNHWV
# UniProt P20226, whole entry, looked up: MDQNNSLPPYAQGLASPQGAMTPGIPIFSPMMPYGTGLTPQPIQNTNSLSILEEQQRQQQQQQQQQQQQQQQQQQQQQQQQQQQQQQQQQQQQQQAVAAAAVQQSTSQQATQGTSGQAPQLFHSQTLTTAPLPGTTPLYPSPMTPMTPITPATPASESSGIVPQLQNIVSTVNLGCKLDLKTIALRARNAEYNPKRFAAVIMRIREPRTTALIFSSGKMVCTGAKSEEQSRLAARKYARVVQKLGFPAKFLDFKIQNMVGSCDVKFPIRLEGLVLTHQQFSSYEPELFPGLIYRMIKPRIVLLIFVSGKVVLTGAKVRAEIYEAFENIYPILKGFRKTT
# The list shows a part of the results. The data scatter; read single values as rough.
# What was measured:
# [1] = compound: ClCC(=O)N[C@H]1CCCc2ccccc12; assay: log2 mean competition ratio of IA-DTB cysteine labelling (DMSO/compound) (log2 ratio); higher = stronger cysteine engagement by compound; conditions: treatment time: 4 h, cell line lysate: HEK293T
# Method: (§1)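 IA-DTB competitive cysteine chemoproteomics in HEK293T RIPA lysate. Lysates were treated with compound 29 or 30 at 50 or 200 µM for 4 h, then IA-DTB (500 µM, 1 h), trypsin-digested, NeutrAvidin-enriched and analysed by diaPASEF. Competition ratio = intensity DMSO / intensity compound (n=4 treated, n=64 DMSO); binding: mean log2 CR ≥ 1 and p ≤ 0.05 plus QC filters. Target is the cysteine site.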
# [2] = compound: ClCC(=O)N[C@@H]1CCCc2ccccc12; assay: as above; conditions: treatment time: 4 h, cell line lysate: HEK293T
# Method: as §1
Target,log2 mean competition ratio ([1]; 200 µM),log2 mean competition ratio ([2]; 50 µM),log2 mean competition ratio ([2]; 200 µM),log2 mean competition ratio ([1]; 50 µM)
TADA2A C384 (UniProt O75478),0.293,–,–,–
TARBP1 C443 (UniProt Q13395),-0.196,0.0236,-0.0285,-0.166
TBC1D15 C686 (UniProt Q8TC07),0.144,–,–,0.403
TEC C495 (UniProt P42680),0.21,-0.0891,0.153,-0.355
THOC5 C608 (UniProt Q13769),-0.192,–,–,-0.279
TAF1C C432 (UniProt Q15572),-0.000472,-0.0445,0.12,-0.0928
THOC6 C279 (UniProt Q86W42),-0.0421,–,-0.117,-0.141
TBL3 C477 (UniProt Q12788),-0.404,–,–,0.045
TEX264 C94 (UniProt Q9Y6I9),-0.333,–,–,0.00414
THNSL1 C277 (UniProt Q8IYQ7),-0.0173,–,–,0.108
THAP12 C644 (UniProt O43422),-0.0353,–,–,-0.12
SYT2 C275,0.195,–,–,-0.131
TAF5 C632 (UniProt Q15542),0.0844,-0.0186,0.322,-0.285
TGM2 C230,-0.519,-0.119,-0.393,-0.0779
TAF4B C160 (UniProt Q92750),-0.00122,–,–,-0.334
THUMPD1 C31 (UniProt Q9NXG2),0.1,–,–,-0.176
TATDN2 C19 (UniProt Q93075),0.0803,–,–,0.317
TFB1M C160 (UniProt Q8WVM0),-0.0847,–,–,-0.0703
TELO2 C518 (UniProt Q9Y4R8),-0.453,–,–,0.0441
TET2 C353 (UniProt Q6N021),-0.331,–,–,0.0548
TASOR2 C1432 (UniProt Q5VWN6),0.0933,–,–,-0.191
TBC1D13 C387 (UniProt Q9NVG8),-0.0429,–,–,-0.335
TET1 C1746 (UniProt Q8NFU7),-0.179,–,–,-0.319
TASOR2 C1044 (UniProt Q5VWN6),0.337,–,–,-0.26
TBC1D15 C184 (UniProt Q8TC07),0.0385,–,–,0.118
TASOR2 C1125 (UniProt Q5VWN6),0.14,–,–,0.111
THEM6 C168 (UniProt Q8WUY1),-0.127,–,–,0.347
TET1 C1881 (UniProt Q8NFU7),0.166,–,–,0.273
TBP C221 (UniProt P20226),0.122,–,–,0.00789

# 2 consecutive records out of the list so far, for reference:
Target,log2 mean competition ratio ([1]; 200 µM),log2 mean competition ratio ([2]; 50 µM),log2 mean competition ratio ([2]; 200 µM),log2 mean competition ratio ([1]; 50 µM)
TET1 C1881 (UniProt Q8NFU7),0.166,–,–,0.273
TBP C221 (UniProt P20226),0.122,–,–,0.00789
